Among the data in PMC4742228 are binding values, retold here.

The chains behind the UniProt entries cited, without tags or fusion partners. Where a name states a change or a piece, a line headed by the entry shows the natural chain unless it says otherwise. A line that says so, or that is headed by a name, gives the form on record, which may keep a tag or linker.
E-cadherin EED>AAA (P12830, form named): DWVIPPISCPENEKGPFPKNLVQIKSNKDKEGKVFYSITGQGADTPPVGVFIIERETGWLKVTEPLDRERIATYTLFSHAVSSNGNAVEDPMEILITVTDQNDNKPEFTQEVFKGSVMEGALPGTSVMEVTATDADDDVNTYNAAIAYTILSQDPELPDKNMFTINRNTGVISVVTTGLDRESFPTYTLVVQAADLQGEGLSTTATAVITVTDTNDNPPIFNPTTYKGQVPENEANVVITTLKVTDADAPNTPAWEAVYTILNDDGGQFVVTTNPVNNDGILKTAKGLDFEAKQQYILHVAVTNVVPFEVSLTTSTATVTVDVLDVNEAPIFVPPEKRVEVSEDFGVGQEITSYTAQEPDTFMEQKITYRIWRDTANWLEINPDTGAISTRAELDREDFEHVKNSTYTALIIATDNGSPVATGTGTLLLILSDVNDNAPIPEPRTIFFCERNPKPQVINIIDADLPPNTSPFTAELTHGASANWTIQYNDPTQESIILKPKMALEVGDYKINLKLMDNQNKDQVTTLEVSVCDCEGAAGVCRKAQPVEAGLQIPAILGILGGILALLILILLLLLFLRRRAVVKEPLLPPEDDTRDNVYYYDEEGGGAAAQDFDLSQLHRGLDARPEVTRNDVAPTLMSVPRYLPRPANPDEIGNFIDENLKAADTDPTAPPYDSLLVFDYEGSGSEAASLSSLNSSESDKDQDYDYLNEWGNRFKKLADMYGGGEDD

This assay deals with E-cadherin EED>AAA (human) (UniProt P12830). In words: subcellular fractionation (membrane against cytosol); Colo 205 cells swollen in hypotonic buffer (10 mM Tris pH 7.4, 1 mM MgCl2, 1 mM EDTA), Dounce homogenised, NaCl added to 0.15 M, 100,000 x g for 30 min at 4°C; membrane pellet and cytosolic supernatant blotted for p120 and E-cadherin.

These are yes or no findings as the source states them, for the method shown.

B1: p120-catenin (protein, UniProt O60716 1-968)
chain: MDDSEVESTASILASVKEQEAQFEKLTRALEEERRHVSAQLERVRVSPQDANPLMANGTLTRRHQNGRFVGDADLERQKFSDLKLNGPQDHSHLLYSTIPRMQEPGQIVETYTEEDPEGAMSVVSVETSDDGTTRRTETTVKKVVKTVTTRTVQPVAMGPDGLPVDASSVSNNYIQTLGRDFRKNGNGGPGPYVGQAGTATLPRNFHYPPDGYSRHYEDGYPGGSDNYGSLSRVTRIEERYRPSMEGYRAPSRQDVYGPQPQVRVGGSSVDLHRFHPEPYGLEDDQRSMGYDDLDYGMMSDYGTARRTGTPSDPRRRLRSYEDMIGEEVPSDQYYWAPLAQHERGSLASLDSLRKGGPPPPNWRQPELPEVIAMLGFRLDAVKSNAAAYLQHLCYRNDKVKTDVRKLKGIPVLVGLLDHPKKEVHLGACGALKNISFGRDQDNKIAIKNCDGVPALVRLLRKARDMDLTEVITGTLWNLSSHDSIKMEIVDHALHALTDEVIIPHSGWEREPNEDCKPRHIEWESVLTNTAGCLRNVSSERSEARRKLRECDGLVDALIFIVQAEIGQKDSDSKLVENCVCLLRNLSYQVHREIPQAERYQEAAPNVANNTGPHAASCFGAKKGKDEWFSRGKKPIEDPANDTVDFPKRTSPARGYELLFQPEVVRIYISLLKESKTPAILEASAGAIQNLCAGRWTYGRYIRSALRQEKALSAIADLLTNEHERVVKAASGALRNLAVDARNKELIGKHAIPNLVKNLPGGQQNSSWNFSEDTVISILNTINEVIAENLEAAKKLRETQGIEKLVLINKSGNRSEKEVRAAALVLQTIWGYKELRKPLEKEGWKKSDFQVNLNNASRSQSSHSYDDSTLPLIDRNQKSDKKPDREEIQMSNMGSNTKSLDNNYSTPNERGDHNRTLDRSGDLGDMEPLKGTTPLMQDEGQESLEEELDVLVLDDEGGQVSYPSMQKI
As for B1, the binding entry was “no binding”.
